This assay deals with T1, β casein, P02666.
T1 chain: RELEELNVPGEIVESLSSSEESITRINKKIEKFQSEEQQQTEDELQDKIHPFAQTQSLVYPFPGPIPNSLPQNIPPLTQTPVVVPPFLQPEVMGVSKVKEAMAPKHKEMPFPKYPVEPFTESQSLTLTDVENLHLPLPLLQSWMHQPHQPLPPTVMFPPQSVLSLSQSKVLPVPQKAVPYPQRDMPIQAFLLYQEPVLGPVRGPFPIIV
Kind of assay: TEM + dynamic light scattering; βCas alone in aqueous medium; micelles; both purified. The following applies: remark: other sources report otherwise.

Results are given in words; binding and its absence hold for the method and conditions named. Some entries that bind do so weakly or less than the wild type.

B1: β casein, P02666 16-224 (protein)
chain: T1 chain
In the case of B1, the binding result is “binds”.

The values above are taken from article PMC6706415.
